Results reported in US8883824B2, “3-(4-aminophenyl)-2-furancarboxylic acid derivative and pharmaceutically acceptable salt thereof” (Sumitomo Dainippon Pharma Co., Ltd., priority 2009, dated 2014).
At least one structure is not confirmed: it was looked up by name or label, or the drawing left a doubt.

System: ob/ob mice
Assay: Combination use with pioglitazone, HbA1c in ob/ob mice
Format: in vivo
Details: single use, oral, 4 weeks (Example 69 3 mg/kg twice a day; pioglitazone 1 mg/kg once a day)
Protocol: An experiment using the compound of Example 69 and pioglitazone in combination was performed to examine the effect on the HbAlc values in ob/ob mice.
B6.V-Lepob/J (ob/ob) mice and control B6.V-Lepob/J (?/+) mice (male, 6 to 7 weeks old, n=8, Charles River Japan) were used. The compound of Example 69 suspended in 0.5% methyl cellulose (3 mg/kg, twice a day), and pioglitazone (1 mg/kg, once a day) were orally administered repeatedly for 4 weeks singly or in combination.
The effects were compared based on the […] (HbA1c) value, and a diabetes-like state (prolonged hyperglycemic state) was confirmed by HbA1c increase in the ob/ob mice.

CCc1ccc(CCOc2ccc(CC3SC(=O)NC3=O)cc2)nc1 (stereo not shown) [pioglitazone, reference compound]
HbA1c value: not confirmed
